Laboratory results taken from the supplement of paper PMC10849652.
The other results are listed elsewhere or left out.

By UniProt entry, the sequences of proteins in these tests, tags left out. Where a name states a change or a piece, a line headed by the entry shows the natural chain unless it says otherwise.
UniProt A4D0V7: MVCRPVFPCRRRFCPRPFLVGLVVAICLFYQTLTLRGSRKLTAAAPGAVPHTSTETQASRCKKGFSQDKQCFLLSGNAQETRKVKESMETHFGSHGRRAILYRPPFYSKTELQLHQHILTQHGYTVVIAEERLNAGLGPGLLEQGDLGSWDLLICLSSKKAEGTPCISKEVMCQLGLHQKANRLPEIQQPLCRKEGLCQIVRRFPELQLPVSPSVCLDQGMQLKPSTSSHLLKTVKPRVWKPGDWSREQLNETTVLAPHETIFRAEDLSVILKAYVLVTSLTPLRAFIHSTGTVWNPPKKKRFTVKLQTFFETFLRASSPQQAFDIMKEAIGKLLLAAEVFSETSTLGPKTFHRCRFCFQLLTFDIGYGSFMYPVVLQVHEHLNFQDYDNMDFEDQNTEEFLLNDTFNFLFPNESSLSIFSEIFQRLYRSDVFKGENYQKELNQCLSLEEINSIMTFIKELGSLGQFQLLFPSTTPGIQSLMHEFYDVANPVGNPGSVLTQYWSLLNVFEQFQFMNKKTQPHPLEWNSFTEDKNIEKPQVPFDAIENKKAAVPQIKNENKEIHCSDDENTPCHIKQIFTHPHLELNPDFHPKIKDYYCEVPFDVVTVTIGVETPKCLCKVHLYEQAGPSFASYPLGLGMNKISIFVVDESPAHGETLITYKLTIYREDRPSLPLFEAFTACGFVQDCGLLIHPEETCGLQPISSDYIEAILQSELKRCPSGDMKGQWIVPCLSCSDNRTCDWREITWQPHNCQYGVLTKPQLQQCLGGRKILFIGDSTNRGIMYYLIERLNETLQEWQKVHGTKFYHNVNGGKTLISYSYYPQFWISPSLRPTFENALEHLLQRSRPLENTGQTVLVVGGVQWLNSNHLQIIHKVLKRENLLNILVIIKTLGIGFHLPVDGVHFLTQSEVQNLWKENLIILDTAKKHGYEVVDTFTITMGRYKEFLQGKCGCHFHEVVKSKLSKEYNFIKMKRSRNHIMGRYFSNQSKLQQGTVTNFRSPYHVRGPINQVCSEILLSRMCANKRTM
UniProt P61201: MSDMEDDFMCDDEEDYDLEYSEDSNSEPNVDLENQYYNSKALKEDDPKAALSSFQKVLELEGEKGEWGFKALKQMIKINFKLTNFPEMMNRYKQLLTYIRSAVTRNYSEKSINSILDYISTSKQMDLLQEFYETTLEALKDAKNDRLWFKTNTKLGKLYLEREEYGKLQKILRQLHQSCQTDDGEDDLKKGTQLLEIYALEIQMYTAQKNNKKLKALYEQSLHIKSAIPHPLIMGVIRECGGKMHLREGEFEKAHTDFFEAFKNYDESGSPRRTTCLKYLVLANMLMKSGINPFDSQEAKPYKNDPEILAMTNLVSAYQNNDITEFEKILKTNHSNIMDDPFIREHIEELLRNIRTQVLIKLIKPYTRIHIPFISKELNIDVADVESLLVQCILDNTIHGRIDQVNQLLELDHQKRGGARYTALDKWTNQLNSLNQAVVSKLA
UniProt Q5RI15: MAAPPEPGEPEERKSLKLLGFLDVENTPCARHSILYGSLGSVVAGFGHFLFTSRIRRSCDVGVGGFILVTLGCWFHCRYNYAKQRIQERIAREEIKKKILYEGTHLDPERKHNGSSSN
UniProt P09669, whole entry, looked up: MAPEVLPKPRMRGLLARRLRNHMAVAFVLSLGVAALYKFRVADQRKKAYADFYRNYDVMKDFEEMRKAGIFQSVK
UniProt Q9BT09: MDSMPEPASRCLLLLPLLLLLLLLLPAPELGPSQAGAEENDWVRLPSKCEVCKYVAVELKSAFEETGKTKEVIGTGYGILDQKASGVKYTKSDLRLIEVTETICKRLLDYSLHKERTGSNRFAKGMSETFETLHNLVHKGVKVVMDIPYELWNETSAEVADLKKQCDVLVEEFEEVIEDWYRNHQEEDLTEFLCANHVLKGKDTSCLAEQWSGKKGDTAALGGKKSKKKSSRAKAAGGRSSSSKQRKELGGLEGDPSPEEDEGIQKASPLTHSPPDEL
UniProt Q7Z4G1, whole entry, looked up: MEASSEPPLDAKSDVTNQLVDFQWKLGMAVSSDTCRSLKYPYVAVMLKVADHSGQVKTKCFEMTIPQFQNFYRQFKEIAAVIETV
UniProt A8TX70: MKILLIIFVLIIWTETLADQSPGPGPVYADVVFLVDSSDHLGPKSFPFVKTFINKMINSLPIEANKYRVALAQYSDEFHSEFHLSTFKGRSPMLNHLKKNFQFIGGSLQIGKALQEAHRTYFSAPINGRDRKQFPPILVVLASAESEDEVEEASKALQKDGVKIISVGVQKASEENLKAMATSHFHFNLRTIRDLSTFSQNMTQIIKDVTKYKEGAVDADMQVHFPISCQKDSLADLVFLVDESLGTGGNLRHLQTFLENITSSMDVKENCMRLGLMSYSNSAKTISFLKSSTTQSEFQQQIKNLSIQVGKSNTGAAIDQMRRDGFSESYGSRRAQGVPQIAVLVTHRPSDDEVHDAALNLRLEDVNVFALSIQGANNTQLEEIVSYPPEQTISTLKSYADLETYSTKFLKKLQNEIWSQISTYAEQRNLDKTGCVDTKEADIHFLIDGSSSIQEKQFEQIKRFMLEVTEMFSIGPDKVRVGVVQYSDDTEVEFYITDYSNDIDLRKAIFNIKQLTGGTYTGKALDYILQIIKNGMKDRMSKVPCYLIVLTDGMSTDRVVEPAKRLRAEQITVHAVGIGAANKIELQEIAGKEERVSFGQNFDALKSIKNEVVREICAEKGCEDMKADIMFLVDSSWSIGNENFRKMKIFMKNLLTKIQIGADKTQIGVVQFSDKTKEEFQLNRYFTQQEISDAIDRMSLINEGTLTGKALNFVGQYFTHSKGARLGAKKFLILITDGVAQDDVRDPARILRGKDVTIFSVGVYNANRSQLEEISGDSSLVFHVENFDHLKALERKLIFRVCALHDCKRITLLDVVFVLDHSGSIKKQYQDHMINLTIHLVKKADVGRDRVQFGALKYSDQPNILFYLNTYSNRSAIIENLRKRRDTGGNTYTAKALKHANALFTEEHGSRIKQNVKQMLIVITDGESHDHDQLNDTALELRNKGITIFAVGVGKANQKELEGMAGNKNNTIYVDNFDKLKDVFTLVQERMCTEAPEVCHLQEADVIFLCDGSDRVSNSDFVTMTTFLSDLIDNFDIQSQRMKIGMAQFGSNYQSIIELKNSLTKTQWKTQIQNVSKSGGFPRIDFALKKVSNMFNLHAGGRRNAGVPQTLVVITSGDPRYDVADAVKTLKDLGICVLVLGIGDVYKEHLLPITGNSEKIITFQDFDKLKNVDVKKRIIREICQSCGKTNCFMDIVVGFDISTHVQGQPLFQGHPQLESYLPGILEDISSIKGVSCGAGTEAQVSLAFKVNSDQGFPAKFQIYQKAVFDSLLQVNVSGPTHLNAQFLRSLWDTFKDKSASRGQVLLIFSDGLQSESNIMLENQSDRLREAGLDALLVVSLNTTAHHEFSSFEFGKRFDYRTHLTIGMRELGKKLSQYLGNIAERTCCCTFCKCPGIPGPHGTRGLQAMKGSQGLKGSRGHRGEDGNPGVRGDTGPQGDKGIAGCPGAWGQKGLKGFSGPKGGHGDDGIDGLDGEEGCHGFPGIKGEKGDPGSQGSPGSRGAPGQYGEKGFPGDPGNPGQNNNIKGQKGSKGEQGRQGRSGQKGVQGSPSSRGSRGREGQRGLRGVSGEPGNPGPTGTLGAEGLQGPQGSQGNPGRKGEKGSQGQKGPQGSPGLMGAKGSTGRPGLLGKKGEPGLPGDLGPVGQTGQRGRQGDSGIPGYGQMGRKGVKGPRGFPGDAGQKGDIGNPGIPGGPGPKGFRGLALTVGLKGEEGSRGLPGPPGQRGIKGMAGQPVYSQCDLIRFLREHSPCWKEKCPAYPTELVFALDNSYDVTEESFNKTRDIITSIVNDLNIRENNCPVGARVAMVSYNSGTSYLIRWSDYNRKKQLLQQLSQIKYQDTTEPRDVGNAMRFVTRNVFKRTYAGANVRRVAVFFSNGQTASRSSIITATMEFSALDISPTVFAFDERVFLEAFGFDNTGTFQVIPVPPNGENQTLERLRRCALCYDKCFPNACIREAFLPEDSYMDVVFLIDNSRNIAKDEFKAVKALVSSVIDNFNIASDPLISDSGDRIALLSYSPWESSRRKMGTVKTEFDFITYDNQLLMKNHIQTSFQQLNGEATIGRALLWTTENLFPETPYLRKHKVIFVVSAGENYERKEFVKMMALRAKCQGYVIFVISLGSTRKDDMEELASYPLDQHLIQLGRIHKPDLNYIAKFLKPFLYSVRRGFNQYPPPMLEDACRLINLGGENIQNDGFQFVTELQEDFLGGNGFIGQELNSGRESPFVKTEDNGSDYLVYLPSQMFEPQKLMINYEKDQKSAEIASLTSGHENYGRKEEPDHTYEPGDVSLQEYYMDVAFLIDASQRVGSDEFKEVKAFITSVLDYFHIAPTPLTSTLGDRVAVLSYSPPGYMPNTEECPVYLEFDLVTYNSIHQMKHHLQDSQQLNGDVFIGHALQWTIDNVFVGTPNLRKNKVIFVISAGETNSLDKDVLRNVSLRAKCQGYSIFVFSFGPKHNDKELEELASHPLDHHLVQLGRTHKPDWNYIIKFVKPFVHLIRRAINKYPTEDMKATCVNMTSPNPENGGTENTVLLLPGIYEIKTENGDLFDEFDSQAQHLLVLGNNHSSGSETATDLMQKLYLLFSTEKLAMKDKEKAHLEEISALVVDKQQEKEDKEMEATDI
UniProt Q9GZY4: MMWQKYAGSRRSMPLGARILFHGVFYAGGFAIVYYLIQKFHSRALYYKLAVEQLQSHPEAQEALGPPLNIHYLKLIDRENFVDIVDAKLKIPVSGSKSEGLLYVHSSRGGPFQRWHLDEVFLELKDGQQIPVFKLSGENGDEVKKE
UniProt Q8N684: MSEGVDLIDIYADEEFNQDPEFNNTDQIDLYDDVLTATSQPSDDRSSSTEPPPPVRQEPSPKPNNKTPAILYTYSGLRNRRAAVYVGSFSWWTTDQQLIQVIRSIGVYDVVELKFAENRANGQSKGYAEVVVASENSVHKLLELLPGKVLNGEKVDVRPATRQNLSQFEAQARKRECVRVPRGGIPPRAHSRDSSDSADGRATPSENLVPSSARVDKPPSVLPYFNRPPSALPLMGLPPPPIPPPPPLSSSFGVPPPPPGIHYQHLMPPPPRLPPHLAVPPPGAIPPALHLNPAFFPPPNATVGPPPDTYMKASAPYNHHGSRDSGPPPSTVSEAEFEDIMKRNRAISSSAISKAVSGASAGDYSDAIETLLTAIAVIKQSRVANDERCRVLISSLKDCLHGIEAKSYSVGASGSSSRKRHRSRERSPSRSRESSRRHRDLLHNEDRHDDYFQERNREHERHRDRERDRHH
UniProt P29373: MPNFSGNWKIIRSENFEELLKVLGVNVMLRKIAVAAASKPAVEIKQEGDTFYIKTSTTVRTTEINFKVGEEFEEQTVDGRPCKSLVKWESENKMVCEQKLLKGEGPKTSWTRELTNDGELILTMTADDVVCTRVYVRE
UniProt Q86VX2, whole entry, looked up: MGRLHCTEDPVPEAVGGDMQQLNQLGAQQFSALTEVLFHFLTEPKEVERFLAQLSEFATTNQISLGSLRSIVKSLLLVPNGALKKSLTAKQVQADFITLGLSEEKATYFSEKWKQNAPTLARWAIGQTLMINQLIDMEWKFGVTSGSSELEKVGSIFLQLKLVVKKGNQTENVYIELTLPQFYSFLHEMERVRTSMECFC
UniProt P53618: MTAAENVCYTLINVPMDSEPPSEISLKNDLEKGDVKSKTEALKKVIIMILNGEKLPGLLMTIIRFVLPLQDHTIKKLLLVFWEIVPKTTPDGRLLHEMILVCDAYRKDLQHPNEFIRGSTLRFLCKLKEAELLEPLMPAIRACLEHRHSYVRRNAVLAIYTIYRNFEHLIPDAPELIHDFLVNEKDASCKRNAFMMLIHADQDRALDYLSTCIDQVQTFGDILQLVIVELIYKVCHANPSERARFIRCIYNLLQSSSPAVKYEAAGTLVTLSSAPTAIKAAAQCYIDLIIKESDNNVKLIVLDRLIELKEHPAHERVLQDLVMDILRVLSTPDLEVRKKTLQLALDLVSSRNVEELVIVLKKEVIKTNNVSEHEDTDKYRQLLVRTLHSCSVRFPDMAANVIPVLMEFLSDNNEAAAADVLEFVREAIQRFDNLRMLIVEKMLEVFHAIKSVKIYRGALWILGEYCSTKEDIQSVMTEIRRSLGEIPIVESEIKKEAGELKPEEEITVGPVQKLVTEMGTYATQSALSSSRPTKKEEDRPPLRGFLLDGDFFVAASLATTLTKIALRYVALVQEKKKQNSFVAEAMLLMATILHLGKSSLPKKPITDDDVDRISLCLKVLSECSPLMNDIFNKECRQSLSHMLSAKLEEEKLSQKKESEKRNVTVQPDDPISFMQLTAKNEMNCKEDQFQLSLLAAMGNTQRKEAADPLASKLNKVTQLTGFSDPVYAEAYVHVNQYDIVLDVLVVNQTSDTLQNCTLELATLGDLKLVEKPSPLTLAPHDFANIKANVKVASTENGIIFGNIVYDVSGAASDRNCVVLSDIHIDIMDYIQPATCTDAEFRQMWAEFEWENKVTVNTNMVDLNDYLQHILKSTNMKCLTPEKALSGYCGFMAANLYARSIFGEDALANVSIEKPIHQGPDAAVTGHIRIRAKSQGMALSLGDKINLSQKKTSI

compound: Cc1cn(-c2cc(NC(=O)c3ccc(C)c(Nc4nccc(-c5cccnc5)n4)c3)cc(C(F)(F)F)c2)cn1 [nilotinib]; test: log2 fold change, soluble protein after heating vs DMSO (PISA); higher = thermal stabilisation; K562 lysate, 10 uM; active = over 0.2 and 3.5 SD of the protein, either way, in both replicates (recomputed)
Method in brief: (§1)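 K562 pellets were dounce-homogenised in PBS pH 7.4 with 1 mM MgCl2, and the crude extract at 1 mg/mL protein was treated with 10 μM compound for 30 min. Aliquots were heated for 3 min across 48°C-58°C, pooled, and brought to 0.5% NP-40 at 4°C; soluble protein was the supernatant after 21,000xg for 90 min. Soluble protein was quantified by TMTpro 16plex LC-MS/MS with channel sums equalised, and reported as log2 fold change in thermal stability against DMSO controls, with values from duplicates.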

log2 fold change, inactive:
CPNE3 (UniProt O75131) -0.016
CNOT9 (UniProt Q92600) 0.021
COG7 (UniProt P83436) 0.02
CORO1C isoform 3 (UniProt Q9ULV4) -0.011
CPED1 (UniProt A4D0V7) 0.054
COPS2 isoform 2 (UniProt P61201) 0.007
CNP (UniProt P09543) 0.033
CPSF2 (UniProt Q9P2I0) -0.032
COQ8A (UniProt Q8NI60) 0.091
COX20 isoform 2 (UniProt Q5RI15) 0.051
CNN1 (UniProt P51911) -0.022
CNOT11 (UniProt Q9UKZ1) -0.04
COPS8 (UniProt Q99627) -0.014
COX6C (UniProt P09669) 0.031
CNPY3 (UniProt Q9BT09) -0.124
COX5B (UniProt P10606) 0.079
CPOX (UniProt P36551) 0.072
COPS5 (UniProt Q92905) 0.008

compound: Cc1nc(Nc2n[nH]c3c2CN(C(=O)N[C@H](CN(C)C)c2ccccc2)C3(C)C)c2sccc2n1; test: as above
Method in brief: as §1

log2 fold change, inactive:
COMMD6 isoform 2 (UniProt Q7Z4G1) 0.057
COL6A5 (UniProt A8TX70) 0.009
COIL (UniProt P38432) -0.022
CORO1A (UniProt P31146) -0.012
COA1 (UniProt Q9GZY4) 0
CPSF7 isoform 3 (UniProt Q8N684) -0.008
CRABP2 (UniProt P29373) -0.125
CPQ (UniProt Q9Y646) 0.055
COMMD7 (UniProt Q86VX2) -0.015
COPB1 (UniProt P53618) -0.007
CNOT8 (UniProt Q9UFF9) -0.065
CPVL (UniProt Q9H3G5) 0.088
COA3 (UniProt Q9Y2R0) 0.026
CPNE1 (UniProt Q99829) -0.008
COA6 isoform 2 (UniProt Q5JTJ3) -0.181
CNPY4 (UniProt Q8N129) 0.123
COPZ1 isoform 4 (UniProt P61923) 0
CNOT4 isoform 6 (UniProt O95628) 0.053
CNNM3 (UniProt Q8NE01) -0.034
COMMD8 (UniProt Q9NX08) 0.107
COPA isoform 2 (UniProt P53621) -0.002
CPNE7 (UniProt Q9UBL6) 0.019
CPNE3 (UniProt O75131) 0.014
CNOT9 (UniProt Q92600) -0.015
COG7 (UniProt P83436) 0.007
CORO1C isoform 3 (UniProt Q9ULV4) 0.008
CPED1 (UniProt A4D0V7) 0.061
COPS2 isoform 2 (UniProt P61201) -0.022
CNP (UniProt P09543) 0.023
CPSF2 (UniProt Q9P2I0) 0.035
COQ8A (UniProt Q8NI60) -0.013
COX20 isoform 2 (UniProt Q5RI15) -0.023
CNN1 (UniProt P51911) 0.02
CNOT11 (UniProt Q9UKZ1) -0.033
COPS8 (UniProt Q99627) 0.05
COX6C (UniProt P09669) 0
CNPY3 (UniProt Q9BT09) -0.044
COX5B (UniProt P10606) 0.03
CPOX (UniProt P36551) -0.027
COPS5 (UniProt Q92905) -0.008
